PubChem BioAssay AID504791, Drosophila RNAi Screening Center, 2011
Aim: 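Genes whose knock-down strengthens or weakens small-RNA reporter silencing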 (primary screen). Cells: Drosophila S2-derived reporter cells. Reagents: long dsRNA against Drosophila genes, about 150-250 ng dsRNA per well (siRNA assay); about 80-120 ng (miRNA assay). Duration: about 5 days (siRNA assay); about 4 days (miRNA assay). Treatment: copper sulfate induction of reporters: 25 µM (siRNA assay); 200 mM stated (miRNA assay), 1-2 days before reading. Detection: 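Per-well ratio of Renilla over firefly light, expressed relative to that plate's average ratio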. Hit rule: 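First-pass picks had plate-scaled ratios over 1.5 for the siRNA assay, over 1.6 for the miRNA assay, or under 0.6; two distinct dsRNAs had to score alike on retest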.
The deposit covers about 23,000 reagents; below is a random part of those that have a named target and a result. Of all reagents, 199 (0.86%) are marked active. 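Plate-scaled ratios behind the calls are not deposited; printed light signals are raw; many rows marked increased or decreased are still called inactive.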 A plus sign joins genes that one reagent is predicted to hit. Not given: the direction of the score.

The first 9 entries, ahead of the listing:
no.	Gene	DRSC id	stable siRNA reporter change	miRNA reporter change	stable assay Renilla, run 1 (luminescence)	stable assay firefly, run 1 (luminescence)	call
1	PyK (GeneID 42620)	DRSC16806			6276	2.87e5	inactive
2	Fst (GeneID 41169)	DRSC16491			8337	5.60e5	inactive
3	mspo (GeneID 36632)	DRSC07652			5587	3.01e5	inactive
4	Osi24 (GeneID 40755)	DRSC12275			6868	3.27e5	inactive
5	CG13088 (GeneID 34180)	DRSC02192			8405	4.10e5	inactive
6	CG31204 (GeneID 318625)	DRSC15106			7742	5.72e5	inactive
7	JhI-26 (GeneID 36819)	DRSC06851			8185	3.60e5	inactive
8	CG8860 (GeneID 36310)	DRSC07291			5983	3.62e5	inactive
9	Cph (GeneID 31660)	DRSC17507			4698	3.65e5	inactive

Results, repeating the preview:
no.	Gene	DRSC id	stable siRNA reporter change	miRNA reporter change	stable assay Renilla, run 1 (luminescence)	stable assay firefly, run 1 (luminescence)	call
1	PyK (GeneID 42620)	DRSC16806			6276	2.87e5	inactive
2	Fst (GeneID 41169)	DRSC16491			8337	5.60e5	inactive
3	mspo (GeneID 36632)	DRSC07652			5587	3.01e5	inactive
4	Osi24 (GeneID 40755)	DRSC12275			6868	3.27e5	inactive
5	CG13088 (GeneID 34180)	DRSC02192			8405	4.10e5	inactive
6	CG31204 (GeneID 318625)	DRSC15106			7742	5.72e5	inactive
7	JhI-26 (GeneID 36819)	DRSC06851			8185	3.60e5	inactive
8	CG8860 (GeneID 36310)	DRSC07291			5983	3.62e5	inactive
9	Cph (GeneID 31660)	DRSC17507			4698	3.65e5	inactive
10	Cph (GeneID 31660)	DRSC18434			5699	2.31e5	inactive
11	Tcs5 (GeneID 38600)	DRSC09774			6046	4.02e5	inactive
12	CG12883 (GeneID 43326)	DRSC14570			7015	4.60e5	inactive
13	CG8814 (GeneID 33492)	DRSC00707			12959	3.11e5	inactive
14	CG14062 (GeneID 43389)	DRSC14725			6186	3.03e5	inactive
15	Xbp1 (GeneID 44226)	DRSC04553			2520	3.27e5	inactive
16	Xbp1 (GeneID 44226)	DRSC21624			8883	4.84e5	inactive
17	CG8010 (GeneID 32921)	DRSC20072			6762	3.58e5	inactive
18	mRpS16 (GeneID 36570)	DRSC07152			6442	4.63e5	inactive
19	CG1690 (GeneID 36004)	DRSC06636			5559	3.86e5	inactive
20	Ugt304A1 (GeneID 53501)	DRSC15127			6475	3.68e5	inactive
21	CG5790 (GeneID 35095)	DRSC02896			5255	1.11e6	inactive
22	GILT3 (GeneID 42787)	DRSC14672			7307	4.61e5	inactive
23	CycT (GeneID 39961)	DRSC11124			3948	1.07e5	inactive
24	CycT (GeneID 39961)	DRSC23304		reporter ratio raised past the hit cutoff	2523	1.70e5	inactive
25	CG30393 (GeneID 246588)	DRSC04253			9680	6.10e5	inactive
26	ebi (GeneID 33212)	DRSC00816			9410	3.44e5	inactive
27	Exo84 (GeneID 43163)	DRSC15965			6592	3.43e5	inactive
28	CG13024 (GeneID 39880)	DRSC09904			7379	2.93e5	inactive
29	TrpRS (GeneID 45399)	DRSC14097			6000	4.62e5	inactive
30	CG9662 (GeneID 33554)	DRSC00723			9320	5.40e5	inactive
31	ldd (GeneID 318066)	DRSC20558			5468	4.22e5	inactive
32	ldd (GeneID 318066)	DRSC22696			4687	4.13e5	inactive
33	Adi1 (GeneID 326189)	DRSC10945			5391	3.31e5	inactive
34	Adi1 (GeneID 326189)	DRSC21485			8774	4.61e5	inactive
35	CG6503 (GeneID 50079)	DRSC16056			5986	3.19e5	inactive
36	CG17917 (GeneID 40778)	DRSC12570			6596	3.94e5	inactive
37	CG13130 (retired record) (GeneID 50439)	DRSC02226		reporter ratio raised past the hit cutoff	9354	4.30e5	inactive
38	CG32856 (GeneID 318251)	DRSC13124			4483	4.36e5	inactive
39	CG33252 (GeneID 2768903)	DRSC19162			4011	3.50e5	inactive
40	Slh (GeneID 33434)	DRSC00789			6358	3.01e5	inactive
41	par-6 (GeneID 32752)	DRSC20359			8190	4.88e5	inactive
42	Caf1-105 (GeneID 36107)	DRSC06209			7072	3.35e5	inactive
43	CG6972 (GeneID 42684)	DRSC16159			8015	4.06e5	inactive
44	upd3 (GeneID 3346149)	DRSC19636			4023	2.65e5	inactive
45	upd3 (GeneID 3346149)	DRSC19968			3716	2.55e5	inactive
46	upd3 (GeneID 3346149)	DRSC22169			8392	4.12e5	inactive
47	Fib (GeneID 37662)	DRSC04614			4627	3.53e5	inactive
48	Dic1 (GeneID 41640)	DRSC14125			7805	4.47e5	inactive
49	CG2202 (GeneID 32014)	DRSC19841			4223	3.98e5	inactive
50	CG13609 (GeneID 42883)	DRSC14612			6928	3.52e5	inactive
51	CG13609 (GeneID 42883)	DRSC22843			4020	3.30e5	inactive
52	5-HT1B (GeneID 37191)	DRSC05031			7442	4.66e5	inactive
53	5-HT1B (GeneID 37191)	DRSC05769			4367	2.40e5	inactive
54	CG6878 (GeneID 39656)	DRSC10737			6862	3.09e5	inactive
55	rumpel (GeneID 31674)	DRSC18436			5766	2.79e5	inactive
56	Moe (GeneID 31816)	DRSC18684			7887	4.70e5	inactive
57	CG18094 (GeneID 35232)	DRSC02655			6435	3.12e5	inactive
58	CG13360 (GeneID 31025)	DRSC18536	reporter ratio lowered past the hit cutoff		2728	3.39e5	inactive
59	CG13360 (GeneID 31025)	DRSC28479		reporter ratio lowered past the hit cutoff			inactive
60	CG7707 (GeneID 39923)	DRSC10903			8267	4.76e5	inactive
61	CG8188 (GeneID 32751)	DRSC20090			3523	3.70e5	inactive
62	CG5592 (GeneID 38662)	DRSC10524			6702	5.34e5	inactive
63	Dera (GeneID 36358)	DRSC07207			7707	2.93e5	inactive
64	Dera (GeneID 36358)	DRSC21336			9242	4.59e5	inactive
65	CG33791 + CG18170	DRSC08523			5550	3.66e5	inactive
66	CG33791 + CG18170	DRSC08601			5972	3.39e5	inactive
67	CG17104 (GeneID 34465)	DRSC02573		reporter ratio lowered past the hit cutoff	6099	8.25e5	inactive
68	CG9018 (GeneID 38283)	DRSC08618			3764	3.56e5	inactive
69	CG7550 (GeneID 38901)	DRSC10875			6167	4.14e5	inactive
70	Gp93 (GeneID 43354)	DRSC15827			6980	3.75e5	inactive
71	CG16935 (GeneID 36540)	DRSC06638			5123	2.76e5	inactive
72	pcx (GeneID 31204)	DRSC18186			6690	4.35e5	inactive
73	pcx (GeneID 31204)	DRSC18187			6822	4.96e5	inactive
74	pcx (GeneID 31204)	DRSC18188			7130	4.58e5	inactive
75	pcx (GeneID 31204)	DRSC18189			6019	4.17e5	inactive
76	pcx (GeneID 31204)	DRSC18190			7056	4.22e5	inactive
77	pcx (GeneID 31204)	DRSC18816			6638	3.80e5	inactive
78	IPIP (GeneID 33849)	DRSC02164			1.15e5	3.52e5	inactive
79	uex (GeneID 5740320)	DRSC20784			5190	3.19e5	inactive
80	uex (GeneID 5740320)	DRSC20786			6166	4.49e5	inactive
81	CG31210 (retired record) + CG4836	DRSC22066			9683	4.81e5	inactive
82	CG16756 (GeneID 31460)	DRSC18115			6071	5.42e5	inactive
83	Art7 (GeneID 37664)	DRSC04588			6388	3.77e5	inactive
